Test results: the supplement of paper PMC10849652
This is one part of the list.

Amino acid sequences for entries named in this document (tags omitted). A change or cut given only in a name is not applied to a line headed by its entry.
UniProt Q99757: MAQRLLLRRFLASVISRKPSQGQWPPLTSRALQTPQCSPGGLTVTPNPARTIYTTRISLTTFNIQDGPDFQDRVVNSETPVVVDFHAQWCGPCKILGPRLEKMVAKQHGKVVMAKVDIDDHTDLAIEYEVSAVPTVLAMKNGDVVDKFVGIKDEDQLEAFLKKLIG
UniProt Q3B726, whole entry, looked up: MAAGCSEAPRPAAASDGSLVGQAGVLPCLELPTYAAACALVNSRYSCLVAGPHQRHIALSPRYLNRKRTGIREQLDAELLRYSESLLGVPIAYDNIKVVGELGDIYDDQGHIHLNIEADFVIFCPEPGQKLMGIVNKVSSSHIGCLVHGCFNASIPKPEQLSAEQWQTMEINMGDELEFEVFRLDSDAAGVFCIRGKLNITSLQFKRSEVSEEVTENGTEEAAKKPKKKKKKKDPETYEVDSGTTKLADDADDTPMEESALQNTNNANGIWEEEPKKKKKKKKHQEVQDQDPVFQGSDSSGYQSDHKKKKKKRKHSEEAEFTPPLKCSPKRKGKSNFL
UniProt P68036, whole entry, looked up: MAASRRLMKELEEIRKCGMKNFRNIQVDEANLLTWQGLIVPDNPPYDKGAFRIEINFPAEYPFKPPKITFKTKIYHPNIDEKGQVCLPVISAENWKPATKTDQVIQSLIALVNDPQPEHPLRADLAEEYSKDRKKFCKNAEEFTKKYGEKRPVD
UniProt Q712K3: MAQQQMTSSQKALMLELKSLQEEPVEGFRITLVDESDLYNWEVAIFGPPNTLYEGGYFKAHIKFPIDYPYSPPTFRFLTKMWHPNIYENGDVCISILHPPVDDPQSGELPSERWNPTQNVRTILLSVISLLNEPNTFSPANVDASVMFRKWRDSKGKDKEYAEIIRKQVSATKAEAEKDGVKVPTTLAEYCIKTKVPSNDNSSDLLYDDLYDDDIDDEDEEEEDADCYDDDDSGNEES
UniProt P51965: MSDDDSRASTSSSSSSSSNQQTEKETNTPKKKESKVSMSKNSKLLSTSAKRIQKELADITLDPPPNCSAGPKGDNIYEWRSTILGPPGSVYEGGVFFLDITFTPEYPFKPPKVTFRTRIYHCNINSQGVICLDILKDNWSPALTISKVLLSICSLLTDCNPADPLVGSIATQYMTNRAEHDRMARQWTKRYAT
UniProt P15374: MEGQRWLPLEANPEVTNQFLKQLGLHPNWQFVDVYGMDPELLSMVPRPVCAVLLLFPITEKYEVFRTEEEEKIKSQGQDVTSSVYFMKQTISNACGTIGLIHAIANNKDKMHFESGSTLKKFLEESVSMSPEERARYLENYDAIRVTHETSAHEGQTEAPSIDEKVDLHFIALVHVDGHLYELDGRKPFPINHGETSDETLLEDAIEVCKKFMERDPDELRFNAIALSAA
UniProt P63279, whole entry, looked up: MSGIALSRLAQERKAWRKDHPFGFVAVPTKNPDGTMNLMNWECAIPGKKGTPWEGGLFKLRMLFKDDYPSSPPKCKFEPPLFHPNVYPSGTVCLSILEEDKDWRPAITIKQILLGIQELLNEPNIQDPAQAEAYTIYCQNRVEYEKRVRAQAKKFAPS
UniProt P40222: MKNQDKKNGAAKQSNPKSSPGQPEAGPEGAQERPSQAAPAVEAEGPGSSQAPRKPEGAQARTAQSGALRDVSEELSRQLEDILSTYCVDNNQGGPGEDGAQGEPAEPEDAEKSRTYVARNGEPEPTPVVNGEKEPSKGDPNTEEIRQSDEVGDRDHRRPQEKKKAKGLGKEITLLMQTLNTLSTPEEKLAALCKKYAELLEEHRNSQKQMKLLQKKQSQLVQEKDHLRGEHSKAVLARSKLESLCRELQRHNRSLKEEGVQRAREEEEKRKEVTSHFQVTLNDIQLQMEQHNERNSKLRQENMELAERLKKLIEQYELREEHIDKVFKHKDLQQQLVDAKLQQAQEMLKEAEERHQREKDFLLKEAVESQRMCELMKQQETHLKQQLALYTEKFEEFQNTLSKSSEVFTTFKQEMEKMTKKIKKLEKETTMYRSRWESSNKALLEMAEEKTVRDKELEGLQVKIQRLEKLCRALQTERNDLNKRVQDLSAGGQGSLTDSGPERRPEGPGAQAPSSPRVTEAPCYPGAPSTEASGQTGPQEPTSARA
UniProt Q9NNW7, whole entry, looked up: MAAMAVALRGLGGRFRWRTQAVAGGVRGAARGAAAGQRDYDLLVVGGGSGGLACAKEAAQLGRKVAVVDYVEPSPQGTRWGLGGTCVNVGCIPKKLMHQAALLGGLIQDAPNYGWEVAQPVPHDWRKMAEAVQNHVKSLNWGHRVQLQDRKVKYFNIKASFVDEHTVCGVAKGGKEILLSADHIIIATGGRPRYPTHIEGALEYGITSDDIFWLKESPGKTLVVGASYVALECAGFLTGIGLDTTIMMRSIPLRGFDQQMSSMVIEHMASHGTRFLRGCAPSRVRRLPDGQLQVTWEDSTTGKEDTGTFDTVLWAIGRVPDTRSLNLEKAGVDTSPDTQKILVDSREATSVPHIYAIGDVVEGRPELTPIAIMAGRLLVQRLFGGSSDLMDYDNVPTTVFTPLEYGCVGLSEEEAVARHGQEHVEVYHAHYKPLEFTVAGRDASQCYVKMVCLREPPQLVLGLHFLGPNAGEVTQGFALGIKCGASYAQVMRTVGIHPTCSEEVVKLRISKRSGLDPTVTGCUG
UniProt O95155, whole entry, looked up: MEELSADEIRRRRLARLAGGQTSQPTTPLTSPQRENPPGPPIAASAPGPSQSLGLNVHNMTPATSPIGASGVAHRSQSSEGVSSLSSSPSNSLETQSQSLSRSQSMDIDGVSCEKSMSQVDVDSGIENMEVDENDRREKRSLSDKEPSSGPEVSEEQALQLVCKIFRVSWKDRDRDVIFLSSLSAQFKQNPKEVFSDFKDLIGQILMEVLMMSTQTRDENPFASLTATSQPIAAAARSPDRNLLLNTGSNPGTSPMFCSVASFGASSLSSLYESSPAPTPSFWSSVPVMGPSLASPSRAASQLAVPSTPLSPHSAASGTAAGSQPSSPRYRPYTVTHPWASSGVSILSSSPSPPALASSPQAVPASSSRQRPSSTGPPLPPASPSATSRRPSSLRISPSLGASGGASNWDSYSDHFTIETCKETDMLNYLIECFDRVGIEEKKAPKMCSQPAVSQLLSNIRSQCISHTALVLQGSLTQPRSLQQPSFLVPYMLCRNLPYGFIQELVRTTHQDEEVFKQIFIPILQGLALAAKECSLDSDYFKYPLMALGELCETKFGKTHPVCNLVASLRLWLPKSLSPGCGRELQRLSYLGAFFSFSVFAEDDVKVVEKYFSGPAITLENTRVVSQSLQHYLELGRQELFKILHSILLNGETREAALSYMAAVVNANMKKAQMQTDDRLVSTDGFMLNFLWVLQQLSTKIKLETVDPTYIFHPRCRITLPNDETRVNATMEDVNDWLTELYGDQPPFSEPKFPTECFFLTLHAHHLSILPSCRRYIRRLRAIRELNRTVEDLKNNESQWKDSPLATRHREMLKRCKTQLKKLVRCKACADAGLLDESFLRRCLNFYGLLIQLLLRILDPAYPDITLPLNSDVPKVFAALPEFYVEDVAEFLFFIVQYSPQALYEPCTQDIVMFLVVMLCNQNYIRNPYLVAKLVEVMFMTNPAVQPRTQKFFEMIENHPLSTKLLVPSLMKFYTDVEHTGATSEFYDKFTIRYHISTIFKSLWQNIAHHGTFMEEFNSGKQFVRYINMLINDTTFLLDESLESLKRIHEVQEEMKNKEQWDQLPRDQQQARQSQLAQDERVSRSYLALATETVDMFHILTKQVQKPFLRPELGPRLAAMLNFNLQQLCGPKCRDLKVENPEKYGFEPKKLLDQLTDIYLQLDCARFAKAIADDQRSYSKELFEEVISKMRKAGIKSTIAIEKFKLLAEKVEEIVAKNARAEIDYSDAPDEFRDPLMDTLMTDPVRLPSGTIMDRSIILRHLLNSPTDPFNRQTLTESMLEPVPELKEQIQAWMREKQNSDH
UniProt Q96CW5, whole entry, looked up: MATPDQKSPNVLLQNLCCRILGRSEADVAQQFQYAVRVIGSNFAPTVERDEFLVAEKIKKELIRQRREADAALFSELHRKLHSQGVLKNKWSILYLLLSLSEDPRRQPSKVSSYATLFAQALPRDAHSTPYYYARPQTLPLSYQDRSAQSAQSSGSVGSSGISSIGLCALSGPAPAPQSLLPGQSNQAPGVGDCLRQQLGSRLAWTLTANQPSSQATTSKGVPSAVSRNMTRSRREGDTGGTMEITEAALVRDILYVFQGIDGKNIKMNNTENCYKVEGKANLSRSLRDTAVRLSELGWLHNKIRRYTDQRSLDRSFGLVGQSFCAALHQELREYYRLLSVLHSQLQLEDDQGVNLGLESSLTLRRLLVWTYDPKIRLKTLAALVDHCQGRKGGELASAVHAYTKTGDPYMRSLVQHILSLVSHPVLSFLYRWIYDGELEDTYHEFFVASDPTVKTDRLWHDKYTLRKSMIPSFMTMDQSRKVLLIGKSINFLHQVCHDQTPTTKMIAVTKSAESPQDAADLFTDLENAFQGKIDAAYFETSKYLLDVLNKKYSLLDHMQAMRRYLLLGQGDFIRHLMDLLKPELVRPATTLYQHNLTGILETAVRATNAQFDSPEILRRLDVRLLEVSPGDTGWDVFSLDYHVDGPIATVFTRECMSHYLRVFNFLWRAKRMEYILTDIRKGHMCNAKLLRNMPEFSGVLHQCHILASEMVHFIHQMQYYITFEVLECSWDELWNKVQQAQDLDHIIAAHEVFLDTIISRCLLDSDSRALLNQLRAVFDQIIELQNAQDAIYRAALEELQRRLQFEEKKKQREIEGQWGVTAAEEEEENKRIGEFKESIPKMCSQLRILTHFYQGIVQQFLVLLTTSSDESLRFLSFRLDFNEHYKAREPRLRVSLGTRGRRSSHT
UniProt P07437, whole entry, looked up: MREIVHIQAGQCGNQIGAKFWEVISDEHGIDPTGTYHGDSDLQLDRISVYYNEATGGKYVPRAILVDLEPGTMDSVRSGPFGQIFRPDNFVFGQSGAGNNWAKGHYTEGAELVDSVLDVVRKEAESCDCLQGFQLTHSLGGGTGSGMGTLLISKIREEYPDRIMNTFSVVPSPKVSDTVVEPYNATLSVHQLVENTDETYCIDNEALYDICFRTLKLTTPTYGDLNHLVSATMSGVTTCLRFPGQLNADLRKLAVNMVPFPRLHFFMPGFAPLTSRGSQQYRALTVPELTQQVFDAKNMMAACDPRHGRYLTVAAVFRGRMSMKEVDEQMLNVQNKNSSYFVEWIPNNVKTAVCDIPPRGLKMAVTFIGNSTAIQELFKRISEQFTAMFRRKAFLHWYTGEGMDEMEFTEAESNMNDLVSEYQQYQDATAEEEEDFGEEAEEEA
UniProt Q15819: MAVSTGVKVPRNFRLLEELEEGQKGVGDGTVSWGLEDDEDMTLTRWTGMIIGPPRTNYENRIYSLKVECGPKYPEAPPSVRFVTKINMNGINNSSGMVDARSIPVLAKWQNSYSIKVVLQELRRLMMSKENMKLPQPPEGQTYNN
UniProt O14562: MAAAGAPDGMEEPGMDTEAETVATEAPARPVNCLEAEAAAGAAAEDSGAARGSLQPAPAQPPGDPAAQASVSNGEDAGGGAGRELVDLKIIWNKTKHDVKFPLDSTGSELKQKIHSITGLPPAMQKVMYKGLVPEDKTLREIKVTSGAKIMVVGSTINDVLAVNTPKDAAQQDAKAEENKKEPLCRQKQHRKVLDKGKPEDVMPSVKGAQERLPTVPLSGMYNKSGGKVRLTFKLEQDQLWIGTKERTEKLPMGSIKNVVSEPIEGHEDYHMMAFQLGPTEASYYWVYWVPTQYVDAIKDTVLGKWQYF
UniProt P51668: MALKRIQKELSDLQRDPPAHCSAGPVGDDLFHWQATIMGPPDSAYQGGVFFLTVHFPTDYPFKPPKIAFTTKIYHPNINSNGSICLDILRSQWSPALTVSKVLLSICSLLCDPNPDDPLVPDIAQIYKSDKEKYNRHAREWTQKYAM
UniProt P0CG48, whole entry, looked up: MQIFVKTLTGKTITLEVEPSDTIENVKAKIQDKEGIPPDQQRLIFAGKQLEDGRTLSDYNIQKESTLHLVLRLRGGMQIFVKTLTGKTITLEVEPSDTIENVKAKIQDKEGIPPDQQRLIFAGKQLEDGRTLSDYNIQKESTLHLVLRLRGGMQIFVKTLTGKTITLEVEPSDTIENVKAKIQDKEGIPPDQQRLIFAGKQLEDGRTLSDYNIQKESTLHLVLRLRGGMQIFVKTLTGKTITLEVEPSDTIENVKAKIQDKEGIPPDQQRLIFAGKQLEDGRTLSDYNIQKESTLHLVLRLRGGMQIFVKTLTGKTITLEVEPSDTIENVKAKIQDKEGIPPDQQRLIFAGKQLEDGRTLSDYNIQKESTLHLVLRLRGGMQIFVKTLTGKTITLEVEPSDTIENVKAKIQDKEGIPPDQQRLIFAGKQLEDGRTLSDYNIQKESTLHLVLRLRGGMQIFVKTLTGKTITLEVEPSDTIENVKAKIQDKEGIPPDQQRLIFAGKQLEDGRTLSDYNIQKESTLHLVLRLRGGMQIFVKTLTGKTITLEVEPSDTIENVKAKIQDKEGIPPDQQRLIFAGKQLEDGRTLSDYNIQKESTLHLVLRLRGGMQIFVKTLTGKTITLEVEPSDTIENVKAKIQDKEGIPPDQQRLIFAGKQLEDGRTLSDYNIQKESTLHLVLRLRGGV

Each target was assayed with CCn1c(C(=O)N(C2CC2)C2CC2)cc2c3c(ncn3C)c(Nc3cc(C)n(C)n3)nc21 (assay: log2 fold change, soluble protein after heating vs DMSO (PISA); higher = thermal stabilisation; K562 lysate, 10 uM; active = over 0.2 and 3.5 SD of the protein, either way, in both replicates (recomputed)).
In short: (§1)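 Soluble protein was defined as the supernatant remaining after 21,000xg for 90 min, following pooling of heated aliquots and adjustment to 0.5% NP-40 at 4°C. Before that, crude K562 extract at 1 mg/mL protein in PBS pH 7.4 with 1 mM MgCl2 was treated with 10 μM compound for 30 min and heated for 3 min across 48°C-58°C. Quantification used TMTpro 16plex LC-MS/MS with channel sums equalised, and values are log-two fold changes in thermal stability relative to solvent controls from duplicates.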

log2 fold change, inactive:
TXN2 (UniProt Q99757) -0.051
TWISTNB (UniProt Q3B726) 0.006
UBE2L3 isoform 3 (UniProt P68036) -0.023
UBE2R2 (UniProt Q712K3) 0.024
TXNL4A (UniProt P83876) -0.013
TXNRD1 (UniProt Q16881) -0.002
UBE2Q1 (UniProt Q7Z7E8) -0.018
TUBG1 (UniProt P23258) -0.008
UBE2E1 (UniProt P51965) 0.008
UCHL3 (UniProt P15374) 0.037
TUBB1 (UniProt Q9H4B7) 0.034
UBE2I (UniProt P63279) -0.057
TXLNA (UniProt P40222) -0.002
TTN isoform 12 (UniProt Q8WZ42) -0.059
UBR2 isoform 4 (UniProt Q8IWV8) 0.021
TUBGCP2 isoform 4 (UniProt Q9BSJ2) 0.021
TXNRD2 (UniProt Q9NNW7) -0.008
UAP1L1 (UniProt Q3KQV9) -0.072
TUT4 (UniProt Q5TAX3) 0.031
UCHL5 isoform 3 (UniProt Q9Y5K5) 0.014
TTPAL (UniProt Q9BTX7) -0.002
UBE2B (UniProt P63146) -0.019
UBE4B isoform 4 (UniProt O95155) 0.011
TUBGCP3 (UniProt Q96CW5) 0.028
TUBB (UniProt P07437) -0.017
UBE2V2 (UniProt Q15819) -0.005
UBXN1 (UniProt Q04323) 0.01
UBFD1 (UniProt O14562) -0.036
UBE2D1 (UniProt P51668) 0.089
UBQLN2 (UniProt Q9UHD9) -0.018
TUFM (UniProt P49411) 0.017
U2AF1 isoform 2 (UniProt Q01081) 0.015
TUBB3 (UniProt Q13509) 0.027
UBE2E3 (UniProt Q969T4) -0.024
UBC (UniProt P0CG48) -0.002

These targets were tested with CCn1cc(-c2ccnc3[nH]c(-c4cccc(CN(C)C)c4)cc23)c(-c2ccc(NC(=O)N(C)C)cc2)n1 in the same assay as above.
In short: as §1

log2 fold change, inactive:
TXN2 (UniProt Q99757) -0.156
TWISTNB (UniProt Q3B726) 0.162
UBE2L3 isoform 3 (UniProt P68036) 0.116
UBE2R2 (UniProt Q712K3) -0.013
TXNL4A (UniProt P83876) -0.151
TXNRD1 (UniProt Q16881) -0.09
UBE2Q1 (UniProt Q7Z7E8) 0.011
TUBG1 (UniProt P23258) -0.017
UBE2E1 (UniProt P51965) 0.074
UCHL3 (UniProt P15374) -0.102
TUBB1 (UniProt Q9H4B7) 0.15
UBE2I (UniProt P63279) -0.123
TXLNA (UniProt P40222) 0.027
TTN isoform 12 (UniProt Q8WZ42) -0.304
UBR2 isoform 4 (UniProt Q8IWV8) -0.005
TUBGCP2 isoform 4 (UniProt Q9BSJ2) 0.078
TXNRD2 (UniProt Q9NNW7) -0.031
UAP1L1 (UniProt Q3KQV9) 0.25
TUT4 (UniProt Q5TAX3) -0.085
UCHL5 isoform 3 (UniProt Q9Y5K5) 0.164
TTPAL (UniProt Q9BTX7) -0.153
UBE2B (UniProt P63146) -0.038
UBE4B isoform 4 (UniProt O95155) -0.007
TUBGCP3 (UniProt Q96CW5) -0.016
TUBB (UniProt P07437) -0.041
UBE2V2 (UniProt Q15819) 0.007
UBXN1 (UniProt Q04323) -0.058
UBFD1 (UniProt O14562) -0.031
UBE2D1 (UniProt P51668) 0.007
UBQLN2 (UniProt Q9UHD9) -0.065
TUFM (UniProt P49411) 0.07
U2AF1 isoform 2 (UniProt Q01081) -0.096
TUBB3 (UniProt Q13509) -0.002
UBE2E3 (UniProt Q969T4) -0.014
UBC (UniProt P0CG48) 0.064
